Assay results from publication PMC11811891, “Structural insights into human TFIIIC promoter recognition” (Science Advances, 2023).
These are yes or no findings as the source states them, for the method shown. Some binding calls cover weakened binding; strength is not graded here.

Molecular target: T1, human TFIIIC subunit TFIIIC110 (human), Q8WUA4
T1 chain: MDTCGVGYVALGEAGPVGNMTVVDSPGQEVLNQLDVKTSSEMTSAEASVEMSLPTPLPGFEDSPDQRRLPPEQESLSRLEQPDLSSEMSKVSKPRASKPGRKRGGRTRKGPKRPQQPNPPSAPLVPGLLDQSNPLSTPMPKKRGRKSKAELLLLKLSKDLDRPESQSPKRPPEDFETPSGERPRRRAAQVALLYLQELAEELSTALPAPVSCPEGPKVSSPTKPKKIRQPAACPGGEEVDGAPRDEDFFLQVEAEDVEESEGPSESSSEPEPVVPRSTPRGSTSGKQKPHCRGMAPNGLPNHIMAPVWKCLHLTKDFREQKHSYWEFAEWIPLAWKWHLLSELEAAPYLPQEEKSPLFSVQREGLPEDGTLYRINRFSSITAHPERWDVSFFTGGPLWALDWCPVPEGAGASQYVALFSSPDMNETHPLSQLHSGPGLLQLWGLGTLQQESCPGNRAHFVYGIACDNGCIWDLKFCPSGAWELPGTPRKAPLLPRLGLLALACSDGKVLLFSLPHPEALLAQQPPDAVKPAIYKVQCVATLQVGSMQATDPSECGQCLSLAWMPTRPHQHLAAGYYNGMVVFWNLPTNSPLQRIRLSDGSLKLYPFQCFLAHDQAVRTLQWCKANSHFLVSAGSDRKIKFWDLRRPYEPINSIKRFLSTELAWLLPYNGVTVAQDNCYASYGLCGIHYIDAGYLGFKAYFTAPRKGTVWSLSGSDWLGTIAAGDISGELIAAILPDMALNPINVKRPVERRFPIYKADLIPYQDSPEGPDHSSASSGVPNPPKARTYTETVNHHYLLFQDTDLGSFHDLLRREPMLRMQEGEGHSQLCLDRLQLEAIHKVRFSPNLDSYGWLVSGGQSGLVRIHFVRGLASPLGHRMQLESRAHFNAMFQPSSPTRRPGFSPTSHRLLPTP
Assay: cryo-EM structure; purified hTFIIIC (3.17 μM) alone or with human TRR-TCT3-2 tRNA gene DNA at a 1:1 molar ratio; EM buffer 20 mM Hepes pH 8, 225 mM KCl, 2 mM MgCl2, 5 mM DTT; 0.1% octyl-β-glucoside; separate reconstructions of τA and of dimeric τB; both purified
Details: remark: other sources report otherwise

B1: human TFIIIC subunit TFIIIC90 (natural protein)
chain: MNTADQARVGPADDGPAPSGEEEGEGGGEAGGKEPAADAAPGPSAAFRLMVTRREPAVKLQYAVSGLEPLAWSEDHRVSVSTARSIAVLELICDVHNPGQDLVIHRTSVPAPLNSCLLKVGSKTEVAECKEKFAASKDPTVSQTFMLDRVFNPEGKALPPMRGFKYTSWSPMGCDANGRCLLAALTMDNRLTIQANLNRLQWVQLVDLTEIYGERLYETSYRLSKNEAPEGNLGDFAEFQRRHSMQTPVRMEWSGICTTQQVKHNNECRDVGSVLLAVLFENGNIAVWQFQLPFVGKESISSCNTIESGITSPSVLFWWEYEHNNRKMSGLIVGSAFGPIKILPVNLKAVKGYFTLRQPVILWKEMDQLPVHSIKCVPLYHPYQKCSCSLVVAARGSYVFWCLLLISKAGLNVHNSHVTGLHSLPIVSMTADKQNGTVYTCSSDGKVRQLIPIFTDVALKFEHQLIKLSDVFGSVRTHGIAVSPCGAYLAIITTEGMINGLHPVNKNYQVQFVTLKTFEEAAAQLLESSVQNLFKQVDLIDLVRWKILKDKHIPQFLQEALEKKIESSGVTYFWRFKLFLLRILYQSMQKTPSEALWKPTHEDSKILLVDSPGMGNADDEQQEEGTSSKQVVKQGLQERSKEGDVEEPTDDSLPTTGDAGGREPMEEKLLEIQGKIEAVEMHLTREHMKRVLGEVYLHTWITENTSIPTRGLCNFLMSDEEYDDRTARVLIGHISKKMNKQTFPEHCSLCKEILPFTDRKQAVCSNGHIWLRCFLTYQSCQSLIYRRCLLHDSIARHPAPEDPDWIKRLLQSPCPFCDSPVF
notes: TFIIIC90, subunit of human TFIIIC; coding gene from DNASU, codon-optimized for insect cells; No truncation is described; also called τ60 in yeast (homolog); source: Sf21 insect cells, baculovirus, coexpressed with the other five hTFIIIC subunits; purified (anti-FLAG M2 agarose, Capto HiRes Q)
  binding: binds
